Test results reported in article PMC12358912.
pKd: −log10 of the molar value. For some of these results: No signal at the amounts used counts as a negative. For some of these results: The exact form of at least one protein or probe is not confirmed.

Chains of the proteins cited; added tags and fusions are not shown. A change or cut given only in a name is not applied to a line headed by its entry. A line that says so, or that is headed by a name, gives the form on record, which may keep a tag or linker.
UniProt Q6KC79: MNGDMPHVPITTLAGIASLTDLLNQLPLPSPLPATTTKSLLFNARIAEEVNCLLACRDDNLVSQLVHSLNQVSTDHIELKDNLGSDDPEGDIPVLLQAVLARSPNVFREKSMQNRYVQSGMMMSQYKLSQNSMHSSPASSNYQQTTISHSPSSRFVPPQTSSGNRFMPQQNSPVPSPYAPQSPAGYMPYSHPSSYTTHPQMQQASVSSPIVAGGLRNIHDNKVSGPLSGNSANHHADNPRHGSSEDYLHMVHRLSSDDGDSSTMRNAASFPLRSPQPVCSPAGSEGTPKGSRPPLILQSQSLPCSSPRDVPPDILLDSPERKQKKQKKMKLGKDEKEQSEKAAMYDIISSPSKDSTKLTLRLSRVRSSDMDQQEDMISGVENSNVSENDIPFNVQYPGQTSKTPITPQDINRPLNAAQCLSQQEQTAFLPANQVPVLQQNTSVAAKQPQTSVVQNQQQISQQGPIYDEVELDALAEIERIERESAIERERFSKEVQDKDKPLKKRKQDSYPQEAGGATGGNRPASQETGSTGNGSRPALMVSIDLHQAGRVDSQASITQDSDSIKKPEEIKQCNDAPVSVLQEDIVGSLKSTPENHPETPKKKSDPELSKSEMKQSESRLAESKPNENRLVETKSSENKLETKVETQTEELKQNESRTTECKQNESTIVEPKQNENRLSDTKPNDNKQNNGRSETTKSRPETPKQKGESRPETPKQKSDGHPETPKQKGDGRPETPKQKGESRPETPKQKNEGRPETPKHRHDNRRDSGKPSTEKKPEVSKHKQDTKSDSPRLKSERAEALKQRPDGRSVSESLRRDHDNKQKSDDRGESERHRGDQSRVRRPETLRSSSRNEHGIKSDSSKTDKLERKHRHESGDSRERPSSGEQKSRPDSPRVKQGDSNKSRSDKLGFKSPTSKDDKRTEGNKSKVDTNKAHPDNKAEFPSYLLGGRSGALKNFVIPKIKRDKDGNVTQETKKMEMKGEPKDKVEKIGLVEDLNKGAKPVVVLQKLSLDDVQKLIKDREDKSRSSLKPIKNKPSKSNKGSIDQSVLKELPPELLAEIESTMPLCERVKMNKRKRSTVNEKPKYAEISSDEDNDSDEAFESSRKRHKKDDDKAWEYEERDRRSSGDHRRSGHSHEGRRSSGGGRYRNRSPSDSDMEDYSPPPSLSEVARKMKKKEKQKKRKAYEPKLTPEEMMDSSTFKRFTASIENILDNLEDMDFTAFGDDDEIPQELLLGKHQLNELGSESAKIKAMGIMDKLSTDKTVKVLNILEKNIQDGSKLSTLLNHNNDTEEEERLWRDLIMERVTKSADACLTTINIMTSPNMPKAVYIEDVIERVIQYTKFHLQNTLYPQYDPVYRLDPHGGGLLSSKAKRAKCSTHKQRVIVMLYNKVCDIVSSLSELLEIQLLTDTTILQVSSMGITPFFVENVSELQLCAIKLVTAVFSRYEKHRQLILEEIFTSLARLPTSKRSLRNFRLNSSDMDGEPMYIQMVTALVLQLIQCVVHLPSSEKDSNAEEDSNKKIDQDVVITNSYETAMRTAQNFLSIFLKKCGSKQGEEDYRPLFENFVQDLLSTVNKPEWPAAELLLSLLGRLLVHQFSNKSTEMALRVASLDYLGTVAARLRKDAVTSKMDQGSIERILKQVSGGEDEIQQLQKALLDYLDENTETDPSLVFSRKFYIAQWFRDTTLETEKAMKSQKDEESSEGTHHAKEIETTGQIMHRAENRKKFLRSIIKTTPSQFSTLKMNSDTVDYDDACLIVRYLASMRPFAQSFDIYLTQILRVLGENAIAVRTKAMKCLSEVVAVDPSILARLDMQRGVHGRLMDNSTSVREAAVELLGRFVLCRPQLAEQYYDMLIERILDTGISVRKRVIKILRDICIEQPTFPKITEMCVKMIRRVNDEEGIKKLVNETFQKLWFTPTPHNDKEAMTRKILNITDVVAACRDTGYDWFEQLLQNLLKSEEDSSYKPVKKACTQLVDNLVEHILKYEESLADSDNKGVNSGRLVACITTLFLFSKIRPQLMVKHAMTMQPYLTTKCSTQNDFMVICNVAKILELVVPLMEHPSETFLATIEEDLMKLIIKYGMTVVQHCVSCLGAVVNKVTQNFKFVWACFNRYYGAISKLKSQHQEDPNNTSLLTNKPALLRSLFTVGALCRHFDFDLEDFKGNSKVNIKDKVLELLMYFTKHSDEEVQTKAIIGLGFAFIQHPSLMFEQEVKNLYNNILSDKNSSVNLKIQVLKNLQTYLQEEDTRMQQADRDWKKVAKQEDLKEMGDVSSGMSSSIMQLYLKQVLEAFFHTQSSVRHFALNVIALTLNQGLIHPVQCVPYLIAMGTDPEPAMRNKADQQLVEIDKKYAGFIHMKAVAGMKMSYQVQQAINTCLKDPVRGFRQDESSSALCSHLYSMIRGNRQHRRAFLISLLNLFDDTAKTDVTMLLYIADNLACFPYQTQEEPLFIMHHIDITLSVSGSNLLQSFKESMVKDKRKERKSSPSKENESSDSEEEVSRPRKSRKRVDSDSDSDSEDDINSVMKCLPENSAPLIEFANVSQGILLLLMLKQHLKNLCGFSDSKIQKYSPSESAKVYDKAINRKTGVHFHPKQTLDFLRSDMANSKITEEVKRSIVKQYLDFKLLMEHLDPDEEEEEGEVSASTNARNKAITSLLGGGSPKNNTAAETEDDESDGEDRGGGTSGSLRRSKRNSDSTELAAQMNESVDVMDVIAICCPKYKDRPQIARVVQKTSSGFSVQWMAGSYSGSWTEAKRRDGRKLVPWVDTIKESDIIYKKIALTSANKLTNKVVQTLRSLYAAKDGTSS
cohesin Trimer (SMC1/SMC3/SCC1) (human), one chain, as listed by the source, chain 1 of 3: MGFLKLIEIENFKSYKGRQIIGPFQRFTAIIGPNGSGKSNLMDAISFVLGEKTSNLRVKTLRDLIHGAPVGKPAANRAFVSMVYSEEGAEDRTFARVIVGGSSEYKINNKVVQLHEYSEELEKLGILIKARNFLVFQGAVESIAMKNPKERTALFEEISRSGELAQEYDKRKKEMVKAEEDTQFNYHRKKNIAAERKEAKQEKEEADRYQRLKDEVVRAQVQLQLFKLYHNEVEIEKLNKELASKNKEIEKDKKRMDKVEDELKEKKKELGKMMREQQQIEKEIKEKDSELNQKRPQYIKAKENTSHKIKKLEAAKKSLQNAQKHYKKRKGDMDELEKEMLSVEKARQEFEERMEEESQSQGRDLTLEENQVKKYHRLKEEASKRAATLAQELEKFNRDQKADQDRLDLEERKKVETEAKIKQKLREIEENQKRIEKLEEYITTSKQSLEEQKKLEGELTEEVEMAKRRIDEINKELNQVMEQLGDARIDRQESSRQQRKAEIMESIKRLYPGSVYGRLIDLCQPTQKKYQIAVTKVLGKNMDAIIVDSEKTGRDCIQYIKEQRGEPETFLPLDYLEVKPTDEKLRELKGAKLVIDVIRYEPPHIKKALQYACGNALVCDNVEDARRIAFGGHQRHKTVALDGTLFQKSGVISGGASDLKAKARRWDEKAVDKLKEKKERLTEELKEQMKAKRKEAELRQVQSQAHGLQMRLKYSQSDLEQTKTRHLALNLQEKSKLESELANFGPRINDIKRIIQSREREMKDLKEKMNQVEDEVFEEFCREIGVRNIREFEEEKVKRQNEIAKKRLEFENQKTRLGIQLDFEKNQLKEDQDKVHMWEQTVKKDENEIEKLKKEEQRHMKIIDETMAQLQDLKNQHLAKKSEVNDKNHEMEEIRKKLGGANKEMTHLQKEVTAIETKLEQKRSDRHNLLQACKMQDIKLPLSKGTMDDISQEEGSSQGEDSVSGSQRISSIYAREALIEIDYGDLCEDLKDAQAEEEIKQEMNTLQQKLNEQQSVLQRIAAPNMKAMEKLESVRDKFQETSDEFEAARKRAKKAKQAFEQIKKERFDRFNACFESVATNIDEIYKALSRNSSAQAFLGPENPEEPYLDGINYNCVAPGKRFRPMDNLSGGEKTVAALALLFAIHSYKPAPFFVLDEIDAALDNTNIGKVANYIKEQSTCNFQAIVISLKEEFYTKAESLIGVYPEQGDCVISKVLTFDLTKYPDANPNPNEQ
STAG1-cohesin (co-purified) (human), one chain, as listed by the source, chain 1 of 4: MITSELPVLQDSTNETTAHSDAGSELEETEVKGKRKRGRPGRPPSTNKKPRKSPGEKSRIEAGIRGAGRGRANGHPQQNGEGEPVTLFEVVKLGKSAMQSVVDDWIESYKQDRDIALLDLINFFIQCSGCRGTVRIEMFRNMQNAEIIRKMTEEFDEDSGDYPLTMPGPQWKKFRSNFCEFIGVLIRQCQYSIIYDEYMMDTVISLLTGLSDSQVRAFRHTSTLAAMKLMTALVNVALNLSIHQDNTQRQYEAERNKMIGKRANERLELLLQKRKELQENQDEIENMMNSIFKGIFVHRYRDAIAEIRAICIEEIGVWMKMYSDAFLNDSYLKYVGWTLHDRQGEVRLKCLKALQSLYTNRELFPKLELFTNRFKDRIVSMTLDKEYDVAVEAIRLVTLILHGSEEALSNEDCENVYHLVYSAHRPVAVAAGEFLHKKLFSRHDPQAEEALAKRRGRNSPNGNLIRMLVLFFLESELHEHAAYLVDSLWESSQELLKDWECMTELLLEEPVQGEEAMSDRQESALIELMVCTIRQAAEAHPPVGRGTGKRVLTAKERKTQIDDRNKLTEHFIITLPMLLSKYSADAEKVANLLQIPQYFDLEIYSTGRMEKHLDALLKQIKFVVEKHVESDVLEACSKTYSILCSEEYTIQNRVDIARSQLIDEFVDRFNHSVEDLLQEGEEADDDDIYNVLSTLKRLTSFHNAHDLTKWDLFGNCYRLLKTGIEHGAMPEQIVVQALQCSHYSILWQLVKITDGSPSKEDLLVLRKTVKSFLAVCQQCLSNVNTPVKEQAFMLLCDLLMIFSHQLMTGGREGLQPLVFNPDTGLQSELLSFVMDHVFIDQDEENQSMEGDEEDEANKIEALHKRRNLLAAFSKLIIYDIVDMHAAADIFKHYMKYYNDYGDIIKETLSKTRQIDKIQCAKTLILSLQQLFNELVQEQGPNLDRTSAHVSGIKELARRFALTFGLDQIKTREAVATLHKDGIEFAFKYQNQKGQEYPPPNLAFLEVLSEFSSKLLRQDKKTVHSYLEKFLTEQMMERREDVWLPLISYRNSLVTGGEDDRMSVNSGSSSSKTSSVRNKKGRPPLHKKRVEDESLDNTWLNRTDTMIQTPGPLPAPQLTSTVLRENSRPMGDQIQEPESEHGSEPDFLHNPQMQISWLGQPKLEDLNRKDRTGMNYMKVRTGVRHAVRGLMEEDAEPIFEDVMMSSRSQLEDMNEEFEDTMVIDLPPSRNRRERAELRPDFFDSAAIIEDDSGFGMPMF
cohesin Trimer (SMC1/SMC3/SCC1) (human), one chain, as listed by the source, chain 3 of 3: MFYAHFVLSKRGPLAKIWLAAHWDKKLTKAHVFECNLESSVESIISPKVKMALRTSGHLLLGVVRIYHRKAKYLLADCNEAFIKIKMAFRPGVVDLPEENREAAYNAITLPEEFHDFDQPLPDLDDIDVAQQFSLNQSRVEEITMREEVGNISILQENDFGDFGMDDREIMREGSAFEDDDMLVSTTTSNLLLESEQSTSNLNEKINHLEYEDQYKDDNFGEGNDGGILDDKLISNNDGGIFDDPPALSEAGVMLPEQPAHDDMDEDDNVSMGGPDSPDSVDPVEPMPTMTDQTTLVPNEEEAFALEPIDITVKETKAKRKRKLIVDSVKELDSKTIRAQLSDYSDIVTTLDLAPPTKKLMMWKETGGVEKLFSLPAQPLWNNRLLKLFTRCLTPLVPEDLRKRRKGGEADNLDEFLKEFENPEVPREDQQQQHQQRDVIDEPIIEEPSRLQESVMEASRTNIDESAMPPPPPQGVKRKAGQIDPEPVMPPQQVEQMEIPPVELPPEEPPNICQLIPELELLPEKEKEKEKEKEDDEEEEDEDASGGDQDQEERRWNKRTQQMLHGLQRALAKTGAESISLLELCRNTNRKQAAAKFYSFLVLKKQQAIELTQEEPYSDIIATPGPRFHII

Legend:
Assay in all cases: mass photometry
[1] = biological target: ΔN-NIPBL del22-1040 (human) (UniProt Q6KC79); details: 150 nM each, no complex, Kd micromolar or higher, typically 150 nM protein + 150 nM DNA, then diluted (10-fold for NIPBL), phosphate buffer (HEPES for MC604 repeat), recombinant protein, residues 1-2804, protein details: His, Strep
[2] = test system: cohesin Trimer (SMC1/SMC3/SCC1) + STAG1 + NIPBL; details: 150 nM each, no unbound holoenzyme, independent of ATP or ATPgS, typically 150 nM protein + 150 nM DNA, then diluted (10-fold for NIPBL), phosphate buffer (HEPES for MC604 repeat), recombinant protein
[3] = test system: cohesin Trimer (SMC1/SMC3/SCC1) (human); details: no nucleotide, beyond detection limit, typically 150 nM protein + 150 nM DNA, then diluted (10-fold for NIPBL), phosphate buffer (HEPES for MC604 repeat), recombinant protein, protein details: SCC1 Halo-His14 (TEV sites within SCC1), FLAG
[4] = test system: STAG1-cohesin (co-purified) (human); details: circular DNA preferred over linear, typically 150 nM protein + 150 nM DNA, then diluted (10-fold for NIPBL), phosphate buffer (HEPES for MC604 repeat), recombinant protein, protein details: His, FLAG

For “CATATGTGCAGTCCCCCCATAAAAAAACCCGCCGAAGCGGGTTTTTACGTTATTTGCGGATTTTAATTAACTAGTTCTAGAGCTCACGTGCAGCTGTCGACGGTACCTGCAGGCCGGCCAGTACTGGGCCCCAACAGATAAAACGAAAGGCCCAGTCTTTCGACTGAGCCTTTCGTTTTATTGGGCCCCCTTGGTCAAATTGGGTATACCCATTTGGGCCTGGTCTGGCCGGCATGGCGCATTACAGCGGTACGCAATTTAAATGCGCCTAGCGCATTTTCCCGACCTTAATGCGCCTCGCG (double strand) [MC302 supercoiled minicircle]”, the binding result [1] was “no binding”, the binding result [2] was “binds” and the pKd [3] was < 5.70. “CATATGTGCAGTCCCCCCATAAAAAAACCCGCCGAAGCGGGTTTTTACGTTATTTGCGGATTTTAATTAACTAGTTCTAGAGCTCACGTGCAGCTGTCGACGGTACCTGCAGGCCGGCCAGTACTGGGCCCCAACAGATAAAACGAAAGGCCCAGTCTTTCGACTGAGCCTTTCGTTTTATTGGGCCCCCTTGGTCAAATTGGGTATACCCATTTGGGCCTGGTCTGGCCGGCATGGCGCATTACAGCGGTACGCAATTTAAATGCGCCTAGCGCATTTTCCCGACCTTAATGCGCCTCGCG (double strand) [MC302 supercoiled minicircle]”: binds [4].
